Test results as given in publication PMC7819943, “Rice protein-binding microarrays: a tool to detect cis-acting elements near promoter regions in rice”.
The other results are listed elsewhere or left out.

Chains of the proteins cited; added tags and fusions are not shown.
UniProt Q0JBA9, entry or part of it: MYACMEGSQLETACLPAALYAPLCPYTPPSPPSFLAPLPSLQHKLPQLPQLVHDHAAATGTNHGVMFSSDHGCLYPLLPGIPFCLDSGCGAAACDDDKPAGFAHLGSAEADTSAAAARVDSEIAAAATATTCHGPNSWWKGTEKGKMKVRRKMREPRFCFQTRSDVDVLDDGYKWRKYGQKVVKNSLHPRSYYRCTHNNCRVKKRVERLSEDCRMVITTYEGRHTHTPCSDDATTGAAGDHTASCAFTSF

Target: OsWRKY34 (Oryza sativa, UniProt Q0JBA9 1-250)
Assay: protein-binding microarray (RPBM); PBS, 2% BSA, 51.3 ng/ul salmon testes DNA, 50 uM zinc acetate, 200 nM TF, 25 C, 1 h; high values mean tight binding
Settings: protein: recombinant; tags: N-terminal polyhistidine and DsRed monomer fusion (pET32a); label: CyDye5-dUTP incorporated in the synthesized complementary strand; 3' TTTTT single-stranded linker to array surface; dsDNA, one strand shown
How it was run: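 Per-feature fluorescence intensity (arbitrary units), read on an Axon 4000B scanner, is the binding signal. Transcription factors carrying an N-terminal polyhistidine tag and DsRed fusion were expressed in E. coli BL21-CodonPlus and purified on Ni–NTA. A custom Agilent array, made double-stranded by primer extension with Cy5-dUTP and blocked with 2% BSA, was incubated with 200 nM protein in PBS, 2% BSA, salmon testes DNA and 50 µM zinc acetate at 25 °C for 1 h and then washed.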

Row | Sequence | binding signal
1 | GTTCCCATATTTATCATTGCATTATTCTGTCTGGCTGTCTCGGAGTCACCTAGTGCAG | 8410 fluorescence intensity (a.u.)
2 | TCCATACGTATTGACACGTAAACTTCCTCGATAGACATTCCGGAGTCACCTAGTGCAG | 8170 fluorescence intensity (a.u.)
3 | TCCATCTGGCGAGGAGAGCAGAGCAGGGGAGGGGATCTTGCGGAGTCACCTAGTGCAG | 9520 fluorescence intensity (a.u.)
4 | TGTTCGTCGCCGCCATCCCACTGACTACCTCGACATAGTTCGGAGTCACCTAGTGCAG | 14900 fluorescence intensity (a.u.)
5 | GAACCTATGGAGTGTGCATCCTATCTCTCCAACCAAACACCGGAGTCACCTAGTGCAG | 9850 fluorescence intensity (a.u.)
6 | GTTTACCTTACTCTACATGCCTATAACAATCATTCATCATCGGAGTCACCTAGTGCAG | 8470 fluorescence intensity (a.u.)
7 | GTGGGGATGGAGGCGTCGTCGGGGTCGTCGTAGAGGTGGGCGGAGTCACCTAGTGCAG | 9240 fluorescence intensity (a.u.)
8 | TAATTTTCTTCTCATATCTCTCTATCTCTCACTTATACATCGGAGTCACCTAGTGCAG | 11300 fluorescence intensity (a.u.)
9 | ATCCATCGTCTTTACACGTACTTACCTTGCTAACCGCACTCGGAGTCACCTAGTGCAG | 8890 fluorescence intensity (a.u.)
10 | TAGAATTTTGGTTTGTCATCCATATTTGAGTCGGTTTTTACGGAGTCACCTAGTGCAG | 8060 fluorescence intensity (a.u.)
11 | CGTGTGCGTGTTGACTTCCACGTCAGCCTTGCCCTTCATCCGGAGTCACCTAGTGCAG | 11400 fluorescence intensity (a.u.)
12 | TTGTCCAACACTACCTGTTGCAATGGGGTTCCTATATTTTCGGAGTCACCTAGTGCAG | 8380 fluorescence intensity (a.u.)
13 | GGGGTTAAAATGGACTTTATCGTTTACAAATGATCTGAATCGGAGTCACCTAGTGCAG | 8770 fluorescence intensity (a.u.)
14 | GCCAAGGCCTTACTGCTGCTTCTGTTTCTTGCCACCAATGCGGAGTCACCTAGTGCAG | 9650 fluorescence intensity (a.u.)
15 | CCCTCACTTTCACTCCACACACACACTTCACGGTTCGCGCCGGAGTCACCTAGTGCAG | 8490 fluorescence intensity (a.u.)
16 | GCTTCACCCTTATGTGCCACCGCCGCCGCACCACGCGCTCCGGAGTCACCTAGTGCAG | 8170 fluorescence intensity (a.u.)
17 | ATGGTCATTTTCTGGGTTAATATGTTGCTGAATGGTAATTCGGAGTCACCTAGTGCAG | 12600 fluorescence intensity (a.u.)
18 | CCCCTGGATCCAATCTGCACCGTCCATTCGCACGCAATCCCGGAGTCACCTAGTGCAG | 9360 fluorescence intensity (a.u.)
19 | AGACGTGGCTGCATCTCTCCCTCTCTCTCGCGTTCCATTGCGGAGTCACCTAGTGCAG | 8670 fluorescence intensity (a.u.)
20 | TCCCAAGCCTGCAGCCCCTAAGGACATTCCGCCTGTGAGCCGGAGTCACCTAGTGCAG | 9720 fluorescence intensity (a.u.)
21 | TTCGTCTCGCAATTTACACGCAAACTGTGTAGTTAGTTTTCGGAGTCACCTAGTGCAG | 8070 fluorescence intensity (a.u.)

2 entries from above in a different format.
Row,Sequence,binding signal
1,GTTCCCATATTTATCATTGCATTATTCTGTCTGGCTGTCTCGGAGTCACCTAGTGCAG,8410 fluorescence intensity (a.u.)
17,ATGGTCATTTTCTGGGTTAATATGTTGCTGAATGGTAATTCGGAGTCACCTAGTGCAG,12600 fluorescence intensity (a.u.)

(next part)

Row | Sequence | binding signal
22 | TACTGTTGTGGGGATGCTCATATGCTGCTCTTAGGCAAATCGGAGTCACCTAGTGCAG | 8890 fluorescence intensity (a.u.)
23 | GCCCGGCTCCAATTATCCATGACCGTCTCGTTCTCCTTTCCGGAGTCACCTAGTGCAG | 9460 fluorescence intensity (a.u.)
24 | GCGTTCCATCTGATATGTGCATTTCTATCATATTATTGTACGGAGTCACCTAGTGCAG | 8960 fluorescence intensity (a.u.)
25 | GAAACAATATTATTCCTCTGTCAAGCCTTTTCGACGAGCTCGGAGTCACCTAGTGCAG | 9900 fluorescence intensity (a.u.)
26 | TTTTTTTTCTCCCATTATTTTTTTTTTCTCACGATTTTTTCGGAGTCACCTAGTGCAG | 9130 fluorescence intensity (a.u.)
27 | GTTAACCATTTTCACTTTAATTTGTCCTTTCGATTGCAACCGGAGTCACCTAGTGCAG | 9080 fluorescence intensity (a.u.)
28 | ATGGTTCTATTAATTAATTACTCCCTCCGTTTCATAATGTCGGAGTCACCTAGTGCAG | 11000 fluorescence intensity (a.u.)
29 | GCCCCAGATATGCTATCAATCTTTCTTGCACCATCATCCTCGGAGTCACCTAGTGCAG | 10100 fluorescence intensity (a.u.)
30 | TCCGTATCCCACACGGCCCATCAAATCTCATTGTTGCTTACGGAGTCACCTAGTGCAG | 9930 fluorescence intensity (a.u.)
31 | TTAGTTACTGCACACAATATTCCTGTGTTTAAGCTTACCTCGGAGTCACCTAGTGCAG | 11000 fluorescence intensity (a.u.)
32 | ATGTCCGTACACGCGTTCTCGATCATTCTCGCGCGCCACCCGGAGTCACCTAGTGCAG | 13000 fluorescence intensity (a.u.)
33 | GGCCCACCACCCGACAACCACTCCCACTCACACGCACGCGCGGAGTCACCTAGTGCAG | 8070 fluorescence intensity (a.u.)
34 | TCGACTGATTGCTTCTTACACACCGCAACTCGCTCTAATTCGGAGTCACCTAGTGCAG | 12700 fluorescence intensity (a.u.)
35 | ACCACCTACATCCACAGTACAGACAGGCAGAGCTAAGCTACGGAGTCACCTAGTGCAG | 9650 fluorescence intensity (a.u.)
36 | CCCATCACCACTCTGCCCACATCCCGGCGTCGCTTCGTGTCGGAGTCACCTAGTGCAG | 9120 fluorescence intensity (a.u.)
37 | CACCCTATTCCTCCTCGCATTCCCCGTTCGCGCCGCCGGACGGAGTCACCTAGTGCAG | 8240 fluorescence intensity (a.u.)
38 | TCACCGGGCGGTCACCGGAGGCGGAGGCGGAGGGAGGGGCCGGAGTCACCTAGTGCAG | 10200 fluorescence intensity (a.u.)
39 | TTTTTTCTGCCTTTTGTACTCCTAATACATACTTTCACAGCGGAGTCACCTAGTGCAG | 10800 fluorescence intensity (a.u.)
40 | TTACCATTTCCGGGTCTACCGTTCCGATTTCGTTTTCAAGCGGAGTCACCTAGTGCAG | 8500 fluorescence intensity (a.u.)
41 | AGTTCAGCTAATCTCCATTATTTCTTCCGCTTTGGTTTGACGGAGTCACCTAGTGCAG | 12900 fluorescence intensity (a.u.)
42 | CAATATATGCTGTTCTTGTGCTTGTGCACCATCGTCGTCGCGGAGTCACCTAGTGCAG | 10600 fluorescence intensity (a.u.)
